Screening data, single-dose tests

Amino acid sequences for entries named in this document (tags omitted). Residues count along the entry.
UniProt Q4DA54, 1-478: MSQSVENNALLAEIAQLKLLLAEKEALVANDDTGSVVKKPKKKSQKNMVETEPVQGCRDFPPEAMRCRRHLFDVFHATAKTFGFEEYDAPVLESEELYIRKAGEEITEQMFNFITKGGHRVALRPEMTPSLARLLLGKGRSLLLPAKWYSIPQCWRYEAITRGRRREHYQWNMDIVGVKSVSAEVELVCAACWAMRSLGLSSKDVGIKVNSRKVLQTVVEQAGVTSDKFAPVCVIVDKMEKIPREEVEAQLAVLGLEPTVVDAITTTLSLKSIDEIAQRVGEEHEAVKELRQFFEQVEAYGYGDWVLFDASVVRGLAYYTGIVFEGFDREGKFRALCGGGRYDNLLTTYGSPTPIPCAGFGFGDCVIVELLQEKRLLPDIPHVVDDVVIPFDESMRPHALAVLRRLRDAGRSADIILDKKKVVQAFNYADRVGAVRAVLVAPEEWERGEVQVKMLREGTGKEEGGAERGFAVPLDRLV
UniProt P9WFT3, whole entry: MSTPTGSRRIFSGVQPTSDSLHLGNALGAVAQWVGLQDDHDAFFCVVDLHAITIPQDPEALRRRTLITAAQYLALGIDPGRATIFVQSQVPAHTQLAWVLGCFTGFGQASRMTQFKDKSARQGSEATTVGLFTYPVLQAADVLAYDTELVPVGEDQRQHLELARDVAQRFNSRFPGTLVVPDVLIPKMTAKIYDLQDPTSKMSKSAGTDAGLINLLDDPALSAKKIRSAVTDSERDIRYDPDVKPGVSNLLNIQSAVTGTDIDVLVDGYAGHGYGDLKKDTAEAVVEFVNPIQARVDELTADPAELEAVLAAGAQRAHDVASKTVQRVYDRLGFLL
UniProt I6X8D2, whole entry: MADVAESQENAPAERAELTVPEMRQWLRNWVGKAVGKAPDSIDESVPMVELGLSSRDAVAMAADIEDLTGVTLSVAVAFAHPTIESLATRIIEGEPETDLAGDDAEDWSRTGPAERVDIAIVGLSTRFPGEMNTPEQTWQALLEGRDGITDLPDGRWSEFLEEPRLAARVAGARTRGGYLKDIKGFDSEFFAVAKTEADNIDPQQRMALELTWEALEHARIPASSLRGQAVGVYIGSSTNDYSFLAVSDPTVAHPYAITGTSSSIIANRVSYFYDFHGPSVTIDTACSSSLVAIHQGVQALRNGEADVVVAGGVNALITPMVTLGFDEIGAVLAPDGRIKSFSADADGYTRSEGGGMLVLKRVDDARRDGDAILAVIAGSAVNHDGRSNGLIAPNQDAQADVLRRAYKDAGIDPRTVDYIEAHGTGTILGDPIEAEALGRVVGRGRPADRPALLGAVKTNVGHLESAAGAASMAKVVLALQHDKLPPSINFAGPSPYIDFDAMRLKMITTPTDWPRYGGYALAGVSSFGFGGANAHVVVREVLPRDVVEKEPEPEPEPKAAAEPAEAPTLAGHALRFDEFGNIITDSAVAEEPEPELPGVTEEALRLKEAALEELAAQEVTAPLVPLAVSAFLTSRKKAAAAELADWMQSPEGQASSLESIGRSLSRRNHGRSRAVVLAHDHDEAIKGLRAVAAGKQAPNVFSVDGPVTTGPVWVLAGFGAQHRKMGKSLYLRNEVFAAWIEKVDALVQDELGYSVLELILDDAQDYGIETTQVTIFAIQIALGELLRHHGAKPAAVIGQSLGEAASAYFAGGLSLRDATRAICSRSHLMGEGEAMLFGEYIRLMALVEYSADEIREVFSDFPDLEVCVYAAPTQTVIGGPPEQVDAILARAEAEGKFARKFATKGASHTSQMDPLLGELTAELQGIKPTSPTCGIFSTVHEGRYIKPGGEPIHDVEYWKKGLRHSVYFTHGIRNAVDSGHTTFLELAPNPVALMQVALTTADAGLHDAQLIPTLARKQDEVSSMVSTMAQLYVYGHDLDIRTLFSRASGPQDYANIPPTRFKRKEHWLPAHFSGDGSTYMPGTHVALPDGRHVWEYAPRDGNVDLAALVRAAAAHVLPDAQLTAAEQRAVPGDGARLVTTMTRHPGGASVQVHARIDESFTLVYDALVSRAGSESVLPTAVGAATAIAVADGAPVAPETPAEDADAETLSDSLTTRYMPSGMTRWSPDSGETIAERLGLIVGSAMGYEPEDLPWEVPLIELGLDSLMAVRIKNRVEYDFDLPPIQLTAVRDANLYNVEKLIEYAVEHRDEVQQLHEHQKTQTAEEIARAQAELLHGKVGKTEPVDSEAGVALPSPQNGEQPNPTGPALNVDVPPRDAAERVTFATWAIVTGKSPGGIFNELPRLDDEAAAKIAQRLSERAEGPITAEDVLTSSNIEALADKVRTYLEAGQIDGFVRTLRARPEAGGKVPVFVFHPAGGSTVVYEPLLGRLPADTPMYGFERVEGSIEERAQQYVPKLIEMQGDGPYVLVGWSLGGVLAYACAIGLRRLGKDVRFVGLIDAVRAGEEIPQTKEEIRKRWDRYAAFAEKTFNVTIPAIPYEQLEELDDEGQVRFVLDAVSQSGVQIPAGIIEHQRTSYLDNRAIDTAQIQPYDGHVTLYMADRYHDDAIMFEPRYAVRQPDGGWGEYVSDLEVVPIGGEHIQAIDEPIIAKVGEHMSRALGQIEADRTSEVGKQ
UniProt Q8IDJ8, 1-583: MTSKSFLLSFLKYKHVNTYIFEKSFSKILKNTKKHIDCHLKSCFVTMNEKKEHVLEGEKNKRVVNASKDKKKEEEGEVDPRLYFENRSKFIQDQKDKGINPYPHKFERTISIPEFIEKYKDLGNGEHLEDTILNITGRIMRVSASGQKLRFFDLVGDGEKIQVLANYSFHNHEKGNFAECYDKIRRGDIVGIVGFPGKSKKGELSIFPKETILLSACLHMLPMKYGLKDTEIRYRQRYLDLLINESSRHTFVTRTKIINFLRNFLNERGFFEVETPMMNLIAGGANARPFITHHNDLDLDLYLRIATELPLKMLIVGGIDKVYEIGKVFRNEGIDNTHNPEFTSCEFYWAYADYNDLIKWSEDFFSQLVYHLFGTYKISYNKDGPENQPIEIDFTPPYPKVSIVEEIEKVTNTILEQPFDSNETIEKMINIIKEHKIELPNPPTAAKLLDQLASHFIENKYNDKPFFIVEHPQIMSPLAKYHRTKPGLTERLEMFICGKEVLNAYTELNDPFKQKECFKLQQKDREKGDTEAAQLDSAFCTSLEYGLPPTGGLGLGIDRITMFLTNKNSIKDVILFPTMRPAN

Each number is a percent effect as filed. The record does not define 0% and 100%; most values in the screen are far below 50% and negative numbers occur (in some assays of this library far below -100). The compounds are a random part of those screened.

TcHisRS: 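Histidine-tRNA ligase, Trypanosoma cruzi CL Brener (UniProt Q4DA54). Enzyme assay of histidyl-tRNA synthetase; the read-out is not stated. Concentration: 30 µM. The record gives no direction; compounds that gave an IC50 in retests scored well above the rest, so higher reads as stronger inhibition. About 69,000 compounds were tested under these conditions; 0.045% (about 31) showed 50% or more at least once.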
MtTrpRS: 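Enzyme assay of tryptophanyl-tRNA synthetase; the read-out is not stated. Target: Tryptophan-tRNA ligase, Mycobacterium tuberculosis (UniProt P9WFT3). Compounds at 10 µM. Higher most likely means stronger inhibition; the record gives no direction and few retests gave an IC50. Of about 65,000 compounds tested this way, about 64 (0.098%) reached 50% or more in at least one test.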
Pks13 thioesterase: 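Enzyme assay of the thioesterase domain of polyketide synthase 13; the read-out is not stated. Target: Polyketide synthase Pks13, Mycobacterium tuberculosis (UniProt I6X8D2). Compounds at 30 µM. Higher reads as stronger inhibition (inferred from which compounds were picked for retests). Size under these conditions: about 67,000 compounds, about 300 of them at 50% or above in at least one test.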
PfKRS1: 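Enzyme assay of the cytosolic lysyl-tRNA synthetase in 384-well plates, read by luminescence. Target: Lysine-tRNA ligase, Plasmodium falciparum 3D7 (UniProt Q8IDJ8). Tested at 30 µM. Direction is inferred from only a few compounds that gave an IC50; most scored high, so higher reads as stronger inhibition. About 69,000 compounds were tested under these conditions; 0.071% (about 49) showed 50% or more at least once.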
Toxoplasma: 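Assay of Toxoplasma gondii numbers, read through their beta-galactosidase reporter with a colour substrate. Concentration: 10 µM. The record gives no direction; the compounds picked for IC50 retests had high values, so higher reads as fewer parasites. Of about 67,000 compounds tested this way, about 260 (0.38%) reached 50% or more in at least one test.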

* Cc1cccc(CNC(=O)Nc2ccn(CCCC(=O)N(C)C)n2)c1 | TcHisRS: 3.867%; MtTrpRS: -3.199%; Pks13 thioesterase: -28.94%; PfKRS1: 0.0996%; Toxoplasma: 2.264%
* CC(C)COC(C)C(=O)NCCNS(C)(=O)=O (stereo not given) | TcHisRS: 9.901%; MtTrpRS: -3.172%; Pks13 thioesterase: -4.171%; PfKRS1: -1.602%; Toxoplasma: 14.02%
* COc1ccc2c(c1)nc1n2[C@@H](CN(C2CCC2)C2CCC2)COC1 | TcHisRS: 9.901%; MtTrpRS: -3.539%; Pks13 thioesterase: 13.5%; PfKRS1: 3.29%; Toxoplasma: -2.342%
* CCn1nc(C)c2ncnc(NCCCn3ccnc3)c21 | TcHisRS: 1.739%; MtTrpRS: 0.5181%; Pks13 thioesterase: -96.76%; PfKRS1: 4.174%; Toxoplasma: 9.36%
* Cc1cccc(C(=O)N2CCc3c(CN(C)C)nn(C)c3C2)n1 | TcHisRS: -1.442%; MtTrpRS: -2.653%; Pks13 thioesterase: -8.657%; PfKRS1: 0.8631%; Toxoplasma: 0.7882%
* Cc1cncc(C(=O)N2CCO[C@H]3[C@H](OCCN(C)C)CC[C@@H]32)c1 | TcHisRS: 0%; MtTrpRS: -1.724%; Pks13 thioesterase: -11.86%; PfKRS1: 1.111%
* [H][C@]12CC[C@]([H])(CN(C(=O)c3cscn3)C1)N(Cc1c(C)noc1C)C2=O | Toxoplasma: -15.14%
* CC(C)=CCN1CCN(C(=O)c2cc(C)n[nH]2)[C@H]2CS(=O)(=O)C[C@H]21 | TcHisRS: 7.921%; MtTrpRS: -1.711%; Pks13 thioesterase: -20.26%; PfKRS1: 2.436%
* COC(=O)c1cc(NC2CCN(CC(F)(F)F)C2=O)ccc1C (stereo not given) | TcHisRS: 8.434%; MtTrpRS: -1.452%; Pks13 thioesterase: 9.801%; PfKRS1: 4.024%; Toxoplasma: 1.263%
* CN(C)C(=O)N1CCCC2(CCN(Cc3ccc(Cl)c(F)c3)C2)C1 (stereo not given) | TcHisRS: 3.743%; MtTrpRS: -1.904%; Pks13 thioesterase: -18.24%; PfKRS1: 1.49%; Toxoplasma: -6.494%
* c1cc(N2CCCCC2)ccc1-c1noc(CN2CCOCC2)n1 | TcHisRS: 7.143%; MtTrpRS: -6.011%; Pks13 thioesterase: 2.674%; PfKRS1: 3.036%; Toxoplasma: -20.67%
* Cl.NCc1ccc(OC(F)F)cc1OC(F)F | Toxoplasma: -3.913%
* Cc1nc(C)c(C(=O)N2CCCC2(C)C(=O)NC2CCCC2)o1 (stereo not given) | TcHisRS: 3.077%; MtTrpRS: -7.405%; Pks13 thioesterase: -7.94%; PfKRS1: -0.494%
* COC(=O)CNC(=O)N1CCC2(CC1)CC(c1ccccc1)CN(C)C2 (stereo not given) | TcHisRS: 2.041%; MtTrpRS: 14.82%; Pks13 thioesterase: -10.2%; PfKRS1: 5.912%; Toxoplasma: -4.123%
* Cc1noc([C@@H]2C[C@H]3CN(CC4CCOCC4)C[C@H]3O2)n1 | TcHisRS: 5.464%; MtTrpRS: 34.88%; Pks13 thioesterase: 27.93%; PfKRS1: -9.184%
* O=C(Cn1ccc2ncccc2c1=O)N1CCCCC1 | TcHisRS: 7.407%; MtTrpRS: -3.865%; Pks13 thioesterase: 10.07%; PfKRS1: 0.1155%; Toxoplasma: 3.633%

2 of the entries, repeated:

structure	TcHisRS	MtTrpRS	Pks13 thioesterase	PfKRS1	Toxoplasma
CCn1nc(C)c2ncnc(NCCCn3ccnc3)c21	1.739	0.5181	-96.76	4.174	9.36
O=C(Cn1ccc2ncccc2c1=O)N1CCCCC1	7.407	-3.865	10.07	0.1155	3.633

The values are deposited in ChEMBL (CHEMBL3988442, “University of Dundee, Small-Polar-MMV Screening Library” (2021)).